These results are taken from patent US20060094059A1, “Methods for identifying new drug leads and new therapeutic uses for known drugs” (Odyssey Thera, Inc., priority 2004, published 2006).

Common to all, as to assay type: cell-based
Assay [1] concerns non-small cell lung carcinoma (A549) cells. The assay can be described thus: MTT proliferation assay, NSCLC. The following applies: Homo sapiens, Tumor Cell NSCLC (A549), 120 hours, read-out: Anti-proliferative IC-50. The method, then: (§1) Cells were maintained in various media as follows: A549, LoVo and PC-3 (Ham's F12K medium with 2 mM L-glutamine and 1.5 g/L sodium bicarbonate), MIA PaCa-2 (Dulbecco's modified Eagle's medium with 4 mM L-glutamine and 4.5 g/L glucose), U87-MG (MEM+Earle's BSS). Medium for each cell line was supplemented with 10% FBS and […] Penecillin/Streptomycin. All cells were grown in incubators set at 37° C., 5% CO2. Thiazolyl Blue Tetrazolium Bromide (MTT) based proliferation assays were performed to assess the anti-proliferative activities of the compounds on these cells. Cells were seeded in 96 well plates at a density of 750 cells/well 24 hours prior to compound treatment. The cells were incubated with varying concentrations of compounds for 120 hours. […] Drug treatment was performed in 5 replicate wells. Background absorbance was established by wells containing medium but no cells. Vehicle (DMSO) only was used as control. MTT (Sigma-Aldrich, St. Louis, Mo.) was added to each well at a final concentration of 0.5 mg/ml. Following a 2 hour incubation at 37° C., medium in the wells was replaced with 0.15 ml DMSO. The plates were agitated for 15 min using a microtiter plate shaker.

Assay [2] deals with colon adenocarcinoma (LoVo) cells. The experiment in a line: MTT proliferation assay, colon. Particulars: Homo sapiens, Tumor Cell Colon (LoVo), 120 hours, read-out: Anti-proliferative IC-50. The method, then:
as §1

In assay [3] the test system is pancreatic carcinoma (MIA PaCa-2) cells. The experiment in a line: MTT proliferation assay, pancreatic. Particulars: Homo sapiens, Tumor Cell Pancreatic (MIA PaCa-2), 120 hours, read-out: Anti-proliferative IC-50. The method, then:
as §1

In assay [4] the test system is prostate adenocarcinoma (PC-3) cells. The assay can be described thus: MTT proliferation assay, prostate. Particulars: Homo sapiens, Tumor Cell Prostate (PC-3), 120 hours, read-out: Anti-proliferative IC-50. The method, then: We used these methods to mine the known pharmacopeia for drugs with previously-unsuspected activity against cancer-related pathways. […] Hits from our cell-based screens were tested for antiproliferative activity in up to 5 different human tumor cell lines, as follows. First, drugs with significant activity in the cellular screen(s) were tested for their ability to block proliferation of a human tumor cell line (PC-3) at an initial concentration of 10 micromolar. For drugs with antiproliferative activity in PC-3 cells, dose-response curves to determine the IC50 for antiproliferative activity and additional tumor cell lines were tested to determine the breadth of activity. Methods for assessing the antiproliferative activity of the cell-based drug ‘hits’ are described below.
Cells were maintained in various media as follows: A549, LoVo and PC-3 (Ham's F12K medium with 2 mM L-glutamine and 1.5 g/L sodium bicarbonate), MIA PaCa-2 (Dulbecco's modified Eagle's medium with 4 mM L-glutamine and 4.5 g/L glucose), U87-MG (MEM+Earle's BSS). Medium for each cell line was supplemented with 10% FBS and […] Penecillin/Streptomycin. All cells were grown in incubators set at 37° C., 5% CO2. […] Background absorbance was established by wells containing medium but no cells. […]

Assay [5] deals with glioblastoma (U-87 MG) cells. The assay can be described thus: MTT proliferation assay, glioblastoma. Particulars: Homo sapiens, Tumor Cell Glioblastoma (U-87 MG), 120 hours, read-out: Anti-proliferative IC-50. The method, then:
as §1

As to `CC(C)OC(=O)C(C)(C)Oc1ccc(C(=O)c2ccc(Cl)cc2)cc1` [Fenofibrate], the IC50 in assay [1] was 15.8 µM; in assay [2], 13.2 µM; in assay [3], 8.4 µM; in assay [4], 18 µM; in assay [5], 40 µM.
